Values of other authors as cited in patent US20200197416A1, “PHARMACEUTICAL COMPOSITION COMPRISING ABIRATERONE ACETATE AND DARULOTAMIDE” (NanGenex Nanotechnology Incorporated, priority 2017, published 2020).
Like-named read-outs stand apart in the source and are kept apart here. For some assays here: The name of at least one read-out is uncertain. For some assays here: At least one compound was matched to its structure with a doubt left.

Experiments:
[1] = day 7 of the multiple-dose period

ratio of diastereomer (S,R)-Darolutamide AUC(0-tlast) to diastereomer (S,S)-Darolutamide (single dose 300 mg, fasting) | ratio of diastereomer (S,R)-Darolutamide AUC(0-tlast) to diastereomer (S,S)-Darolutamide (single dose 300 mg, fed) | ratio of diastereomer (S,R)-Darolutamide AUC(0-tlast) to diastereomer (S,S)-Darolutamide (single dose 600 mg, fasting) | ratio of diastereomer (S,R)-Darolutamide AUC(0-tlast) to diastereomer (S,S)-Darolutamide (single dose 600 mg, fed) | time at which Cmax was reached after the dose taken with breakfast [1] | SMILES
approximately 1:4 | ~1:5 | approximately 1:7 | ~1:8 | – | CC(O)c1cc(C(=O)N[C@@H](C)Cn2ccc(-c3ccc(C#N)c(Cl)c3)n2)n[nH]1 (stereo partly drawn) [(S,R)-Darolutamide]
– | – | – | – | 3 to 11 h | CC(O)c1cc(C(=O)N[C@@H](C)Cn2ccc(-c3ccc(C#N)c(Cl)c3)n2)[nH]n1 (some centres unmarked) [Darolutamide]
